Measurements: PubChem BioAssay AID540303 (National Center for Advancing Translational Sciences (NCATS), 2011)
Hit rate of the full screen: of about 330,000 compounds, about 1,000 (0.3%) were called active. The shares of active, inactive and inconclusive entries below differ from those in the screen. Calls come from the whole dose curve; as a rule, active = well fitted inhibition curve with a large enough effect; inconclusive = small, poorly fitted or top-dose-only effect; inactive = no such curve, though single readings can be large or run the other way; tested in mouse RAW 264.7 cells. A potency beside an inconclusive call is a rough fit, not a confirmed value.

test: qHTS for Inhibitors of Cell Surface uPA Generation; conditions: cell surface uPA generation assay; series mostly up to 38.3 µM; note: nearly all actives have a fitted effect of over 55% in size
Outline: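 ATP-Lite luminescence in RAW 264.7 cells after 24 h of exposure to compound, tested up to 38.3 uM final in 1:5 steps. Raised ATP reflects inhibition of uPA-dependent LF delivery to the cytoplasm.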
Potency is the fitted concentration of half-maximal effect.

Structure (SMILES) | Potency
CC(C)c1ccc(C(=O)NC2=NCCS2)cc1 | inconclusive: 3.16 µM [inhibitor, partial curve, poor fit]
COc1ccc(-n2c(C)cc(C(=O)COC(=O)c3ccc(O)cc3O)c2C)cc1 | inconclusive: 8.91 µM [inhibitor, single point]
COc1ccc(CCC(=O)N/N=C\c2cccs2)cc1 | inconclusive: 11.2 µM [inhibitor, partial curve, poor fit]
O=S(=O)(Nc1ccc(C(F)(F)F)cn1)c1ccccc1 | inactive
O=C(NCc1cccnc1)c1ccc(S(=O)(=O)Nc2ccccc2)cc1 | inactive
O=[N+]([O-])c1ccc(N/N=C2/CCCCC2c2ccccn2)c([N+](=O)[O-])c1 (stereo not given) | inconclusive: 31.6 µM [inhibitor, partial curve, poor fit]
C#CCOCCOCCOCCNc1nc(N2CCN(C(=O)[C@H](CCCCN)n3cc([C@@H](N)C(C)CC)nn3)CC2)nc(N2CCN(C(=O)[C@H](Cc3cc4ccccc4[nH]3)n3cc([C@@H](N)CC(C)C)nn3)CC2)n1 (stereo not given in full) | inconclusive: 4.47 µM [inhibitor, partial curve, poor fit]
CNCCC=C1c2ccccc2C=Cc2ccccc21 | inconclusive: 11.2 µM [inhibitor, single point]
CCc1ccccc1NC(=O)Cn1nnc(C(=O)NCc2cccc(OC)c2)c1N | active: 3.98 µM
c1ccc2nc(SCc3cn4ccccc4n3)cnc2c1 | inconclusive: 12.6 µM [inhibitor, single point]
N#C/C(=C(/O)COC(=O)COc1cccc(Br)c1)c1nc2ccccc2[nH]1 | inconclusive: 12.6 µM [inhibitor, single point]
CCCCOC(=O)c1ccc(NC(=S)NC(=O)c2c(Cl)cnn2C)cc1 | inactive
CCn1c2ccccc2c2cc(CNCc3ccc(OC)cc3OC)ccc21 | inconclusive: 7.94 µM [inhibitor, single point]
CCn1c(C(C)NC(=O)c2ccc(Cl)cc2)n[nH]c1=S (stereo not given) | inactive
COC(C(=O)Nc1ccnn1C1CCN(Cc2ccc(C)o2)CC1)c1ccccc1 (stereo not given) | inconclusive: 2.82 µM [inhibitor, single point]
CCc1nc(SCC(=O)NC2CC2)c2c(C)c(C)sc2n1 | inactive
O=C(Nc1cccc2ncccc12)c1ccccc1F | inconclusive: 0.316 µM [inhibitor, full curve, poor fit]
COc1ccc(-c2nc(-c3ccccc3)no2)c(OC)c1 | inconclusive: 3.55 µM [inhibitor, partial curve]
COc1cc2c(C)nc3c(c(C)nn3-c3ccccc3)c2cc1OC | inactive
Cc1ccc(C(=O)COC(=O)c2ccc3c(c2)C(=O)N(c2cccc4ncccc24)C3=O)cc1 | inactive
Cc1[nH]nc2nc(SCC(=O)NCCC3=CCCCC3)n(-c3ccc(Br)cc3)c(=N)c12 | inconclusive: 10 µM [inhibitor, partial curve, poor fit]

Structure (SMILES) | Potency
C[C@H]1CN([C@@H](C)CO)C(=O)c2cccc(NC(=O)c3nc4ccccc4s3)c2O[C@H]1CN(C)C(=O)Nc1ccc(F)cc1 | inconclusive: 8.91 µM [inhibitor, partial curve, poor fit]
CCc1nn(C(C)C(=O)N2CCN(c3ccc(OC)cc3)CC2)c(=O)c2cc3occc3n12 (stereo not given) | inconclusive: 1.12 µM [inhibitor, partial curve, poor fit]
CCOc1ccccc1C(=O)NCC(=O)NCC(C)(C)N1CCOCC1 | inconclusive: 3.16 µM [inhibitor, partial curve, poor fit]
CCCN1CNc2c(c(=O)[nH]c(=S)n2-c2ccc(Cl)cc2)C1 | inactive
O=C(COc1ccc(Br)cc1CO)Nc1ccccc1F | inactive
CCOc1ccccc1N=NC1C(=O)N(C(N)=S)N=C1C (stereo not given) | inconclusive: 6.31 µM [inhibitor, single point]
O=C(Nc1ccccc1N1CCCCC1)c1cc(S(=O)(=O)N2CCOCC2)ccc1Cl | inconclusive: 8.91 µM [inhibitor, partial curve, poor fit]
Cc1cc(C)n(CC(=O)c2cccc([N+](=O)[O-])c2)n1 | inactive
CCOc1ccc(CNc2nc3ccccc3n2C)cc1 | inconclusive: 11.2 µM [inhibitor, partial curve, poor fit]
CCCNCCC(c1ccco1)c1ccccc1OC (stereo not given) | inactive
COc1ccc(NC(=O)CNC(=O)C2CCCCC2)cc1OC | inconclusive: 2.82 µM [inhibitor, single point]
O=C(NCc1cn(-c2ccccc2)nc1-c1ccccc1)c1cccc([N+](=O)[O-])c1 | inconclusive: 12.6 µM [inhibitor, single point]
O=[N+]([O-])c1c(NCCCO)cc(Sc2ccc(Cl)cc2)c2nonc12 | inconclusive: 1.78 µM [inhibitor, partial curve, poor fit]
COc1ccc(-c2nc(N)nc(N)n2)c(O)c1 | inconclusive: 12.6 µM [inhibitor, partial curve, poor fit]
CC(=O)NC(c1ccco1)c1cc(Cl)c2ccccc2c1O (stereo not given) | inconclusive: 10 µM [inhibitor, partial curve, poor fit]
O=C(O)C1OC(Oc2cc3oc(-c4ccccc4)cc(=O)c3c(O)c2O)C(O)C(O)C1O (stereo not given) | inconclusive: 5.01 µM [inhibitor, partial curve]
O=C(O)c1cc(O)c2c(c1)C(=O)c1cc(O)cc(O)c1C2=O | inconclusive: 11.2 µM [inhibitor, partial curve, poor fit]
CCOC(=O)c1cnc2c(ccc3ccccc32)c1NCCN(C)C | inconclusive: 28.2 µM [inhibitor, single point]
CC(=O)c1c(O)cc(C(C)C)n(-c2ccccc2)c1=O | inconclusive: 11.2 µM [inhibitor, partial curve, poor fit]
C=CCN1CCc2c(cc(O)c(O)c2Cl)C(c2ccccc2)C1 (stereo not given) | inconclusive: 7.08 µM [inhibitor, partial curve]
O=C1CCN(Cc2ccccc2)S(=O)(=O)c2c(F)cc(F)cc21 | inconclusive: 2.82 µM [inhibitor, full curve]
CCCN1CCN(CCCNC(=O)c2cc3c(s2)-c2c(C)cccc2OC3)CC1 | inconclusive: 3.98 µM [inhibitor, partial curve]

Structure (SMILES) | Potency
CCOc1c(OC(C)=O)ccc(/C=C2\N=C(SCC)SC2=O)c1[N+](=O)[O-] | inactive
O=C(O)/C=C/C(=O)O | inactive
O=C(c1ccc(N2C(=O)C3C4CC(C(Br)C4Br)C3C2=O)cc1)N1CCCCC1 (stereo not given) | inactive
O=C(NCc1ccccn1)c1cc(-c2ccc(-c3ccccc3)cc2)nc2ccccc12 | active: 1.12 µM
Nc1ccncc1N | inconclusive: 3.16 µM [inhibitor, partial curve, poor fit]
CCCc1nc(SCC(=O)c2ccccc2)c2c(=O)n(C)c(=O)n(C)c2n1 | inconclusive: 12.6 µM [inhibitor, single point]
COc1ccc(N=Cc2nc(-c3ccccc3)oc2OC(=O)c2ccccc2)cc1 | inconclusive: 11.2 µM [inhibitor, single point]
O=C(/C=C/c1ccco1)NC(=S)Nc1cccc(-c2nc3ccccc3o2)c1 | inconclusive: 2.51 µM [inhibitor, partial curve, poor fit]
C=CC[n+]1c(/C=C/c2ccc(OC(C)=O)c(OC)c2)ccc2ccccc21 | inconclusive: 7.08 µM [inhibitor, single point]
O=C(NN=Cc1c(F)cccc1F)c1ccccc1NS(=O)(=O)c1cccs1 | inconclusive: 2.82 µM [inhibitor, full curve, poor fit]
c1ccc2cc(OCc3nc4ccccc4[nH]3)ccc2c1 | inconclusive: 12.6 µM [inhibitor, partial curve]
CC(C)c1ccc(NC(=O)C2CCN(S(=O)(=O)c3ccc4c(c3)C(C)(C)C(=O)N4C)CC2)cc1 | inconclusive: 14.1 µM [inhibitor, partial curve, poor fit]
Cc1ccc(C)c(NC(=O)c2cc3c([nH]c4ccccc43)c(C)n2)c1 | inactive
O=C1CC(c2ccccc2)CC(O)=C1C=Nc1ccccc1O (stereo not given) | inconclusive: 5.01 µM [inhibitor, partial curve, poor fit]
Cc1csc(NC(=O)c2ccccc2)n1 | inconclusive: 8.91 µM [inhibitor, partial curve, poor fit]
Cc1ccc(NC(=O)CCC(=O)N/N=C/c2ccccc2O)cc1 | inconclusive: 8.91 µM [inhibitor, partial curve, poor fit]
CCCn1cnc2cc(NCc3ccccn3)ccc21 | inconclusive: 8.91 µM [inhibitor, single point]
CCCn1c(N)c(C(=O)COc2ccc(Br)cc2F)c(=O)n(C)c1=O | inconclusive: 12.6 µM [inhibitor, single point]
O=C(CCC(=O)N1CCN(c2ccc(O)cc2)CC1)c1cccs1 | active: 3.98 µM
O=C(NCC(=O)N(c1ccc(F)cc1)C(C(=O)NC1CCCCC1)c1ccncc1)c1ccco1 (stereo not given) | inactive
CCCNC(=S)NC1CC2CCC(C1)N2Cc1ccccc1 (stereo not given) | inconclusive: 1 µM [inhibitor, full curve, poor fit]

Ordered by number of heavy atoms (largest number first): part of the list above
Structure (SMILES) | Potency
O=C(c1ccc(N2C(=O)C3C4CC(C(Br)C4Br)C3C2=O)cc1)N1CCCCC1 (stereo not given) | inactive
O=C1CC(c2ccccc2)CC(O)=C1C=Nc1ccccc1O (stereo not given) | inconclusive: 5.01 µM [inhibitor, partial curve, poor fit]
c1ccc2cc(OCc3nc4ccccc4[nH]3)ccc2c1 | inconclusive: 12.6 µM [inhibitor, partial curve]
